# Results from PubChem BioAssay (EPA / NIEHS).
# Inconclusive results, whose numbers are uncertain, are shown with a selection of clear calls. For part of these data: Potencies of inconclusive entries are doubtful fits and often do not repeat. Activity calls are given as the source filed them. The calls were made as follows: active = hit-call score of the fitted dose curve at least 0.9, where 1 is the maximum; inconclusive = response in the unintended direction; inactive = score below 0.9.
# What was measured:
# [1] = Tanguay_ZF_120hpf_PE_legacy: (Legacy) Oregon State University Tanguay Lab 120 Hour Post-fertilization zebrafish Assay for Pericardial Edema (AID 2283640);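 as to AC50: potency for increased incidence of pericardial edema versus DMSO baseline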
# Method in brief: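 Read-out is the presence or absence of pericardial edema at 120 hpf under brightfield, with gain of signal fitted against DMSO controls. Larvae (5D wild-type) were statically exposed at 28C with 0.64% final DMSO.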
# [2] = Tanguay_ZF_120hpf_BRAI_legacy: (Legacy) Oregon State University Tanguay Lab 120 Hour Post-fertilization zebrafish Assay for Brain Malformation (AID 2283641)
# Method in brief: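 Brain malformation in Tropical 5D zebrafish was recorded as a binary endpoint after static compound exposure from early development to 120 hpf at 28C. Activity was analysed against DMSO as negative control.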
# [3] = Tanguay_ZF_120hpf_SOMI_legacy: (Legacy) Oregon State University Tanguay Lab 120 Hour Post-fertilization zebrafish Assay for Somite Malformation (AID 2283647)
# Method in brief: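 5D WT zebrafish; chorion removed 4 hpf; 1 embryo/well from 6 hpf; static exposure to 120 hpf, 28C, 0.64% DMSO final. Endpoint: somite malformation, binary, brightfield. Mortality excluded.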
# [4] = Tanguay_ZF_120hpf_NC_legacy: (Legacy) Oregon State University Tanguay Lab 120 Hour Post-fertilization zebrafish Assay for Notochord and Tail Malformation (AID 2283656)
# Method in brief: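 Binary notochord-distortion calls, made by brightfield inspection, form the read-out; activity is fitted in the positive direction against DMSO. Exposure ran statically from 6 to 120 hpf at 28C with 0.64% DMSO.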
# [5] = Tanguay_ZF_120hpf_TR_legacy: (Legacy) Oregon State University Tanguay Lab 120 Hour Post-fertilization zebrafish Assay for Touch Response (AID 2283667)
# Method in brief: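 Readout is presence or absence of touch response in 120 hpf zebrafish larvae, assessed by brightfield observation after continuous static exposure at 28C. Final vehicle was 0.64% (vol/vol) DMSO.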
# [6] = Tanguay_ZF_120hpf_PFIN_legacy: (Legacy) Oregon State University Tanguay Lab 120 Hour Post-fertilization zebrafish Assay for Pectoral Fin Malformation (AID 2283648);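 also: each larva judged yes or no for fin defect by brightfield with dead larvae skipped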
# Method in brief: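 Scoring of pectoral fin malformation was binary, made at 120 hpf on larvae exposed statically from 6 hpf after enzymatic chorion removal. Activity was fitted upward relative to DMSO controls at 0.64% (vol/vol).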
# [7] = Tanguay_ZF_120hpf_CFIN_legacy: (Legacy) Oregon State University Tanguay Lab 120 Hour Post-fertilization zebrafish Assay for Caudal Fin Malformation (AID 2283649)
# Method in brief: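 Embryos were collected from Tropical 5D wild-type adults and dechorionated at 4 hpf. At 6 hpf each was exposed, one per well, at 0.64% DMSO and 28C. At 120 hpf fin morphology was scored; dead embryos were excluded.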
# [8] = Tanguay_ZF_120hpf_PIG_legacy: (Legacy) Oregon State University Tanguay Lab 120 Hour Post-fertilization zebrafish Assay for Pigmentation Malformation (AID 2283650)
# Method in brief: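 Endpoint is incidence of abnormal pigmentation at 120 hpf in dechorionated 5D zebrafish exposed singly from 6 hpf at 28C, DMSO vehicle at 0.64%. Embryos dying by 24 or 120 hpf are excluded from scoring.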
# [9] = Tanguay_ZF_120hpf_TRUN_legacy: (Legacy) Oregon State University Tanguay Lab 120 Hour Post-fertilization zebrafish Assay for Truncated Body (AID 2283655)
# Method in brief: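 5D wild-type larvae; pronase dechorionation; static exposure 6→120 hpf, 28C; DMSO 0.64% final; 5uM trimethyltin chloride positive control. Readout: presence/absence of truncated body, analyzed relative to DMSO.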
# [10] = CCTE_Simmons_CellTiterGLO_HEK293T: Viability Assessment in CCTE's Assays for Thyroperoxidase (TPO) Inhibition, Simmons Lab (AID 2283665);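 also: cells exposed to compound for 24 h before readout; actives reduce ATP signal below DMSO vehicle meaning cytotoxicity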
# Method in brief: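 ATP depletion measured in HEK293T cells after 24 h dosing (8 concentrations, 5 nM–87.5 uM final; DMSO 0.5%) using CellTiter-Glo luminescence; curves fit for loss of signal against DMSO baseline.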
# [11] = Tanguay_ZF_120hpf_CIRC_legacy: (Legacy) Oregon State University Tanguay Lab 120 Hour Post-fertilization zebrafish Assay for Circulatory Malformation (AID 2283651)
# Method in brief: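 Binary circulatory-malformation call at 120 hpf via brightfield imaging, relative to DMSO controls. Embryos (5D strain, chorion removed) received static, light-shielded exposure at 28C.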
# [12] = Tanguay_ZF_120hpf_SWIM_legacy: (Legacy) Oregon State University Tanguay Lab 120 Hour Post-fertilization zebrafish Assay for Swim Bladder Malformation (AID 2283654);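 also: swim bladder malformation in each larva scored yes or no under brightfield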
# Method in brief: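 Static waterborne exposure of single dechorionated Tropical 5D zebrafish embryos, 6–120 hpf, 28C, 0.64% DMSO final. Read-out: swim bladder malformation, present/absent, relative to DMSO negative control; trimethyltin chloride 5uM served as positive control.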
# [13] = read-out: xenobiotic metabolism (CYP1A1), CYP1A1 (gene 1543); experiment: CLD_CYP1A1_6hr: CellzDirect (CLD) Gene Expression Assay for xenobiotic metabolism (CYP1A1) at 6 hours (AID 2283661);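 also: potency for transcript induction above DMSO vehicle baseline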
# Method in brief: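 Read-out 6 h post-dose: qNPA chemiluminescent quantitation of transcript induction against 0.2% DMSO. Cells were cultured primary human hepatocytes from two separate donor preparations; phase-contrast morphology annotated apparent cytotoxicity.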
# [14] = read-out: xenobiotic metabolism (CYP2C9), CYP2C9 (gene 1559); experiment: CLD_CYP2C9_6hr: CellzDirect (CLD) Gene Expression Assay for xenobiotic metabolism (CYP2C9) at 6 hours (AID 2283664)
# Method in brief: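 Readout is qNPA chemiluminescence of CYP2C9 mRNA, taken 6 h after dosing of cultured human liver primary cells at several concentrations. Activity is the increase over 0.2% DMSO baseline. Morphology-based cytotoxicity flagged yes/no.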
# [15] = read-out: alkyl and aryl transferase (GSTA2), GSTA2 (gene 2939); experiment: CLD_GSTA2_6hr: CellzDirect (CLD) Gene Expression Assay for alkyl and aryl transferase (GSTA2) at 6 hours (AID 2283666)
# Method in brief: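 GSTA2 transcript induction at 6 h, quantified by nuclease protection (qNPA) with chemiluminescent detection, in human liver primary hepatocytes exposed to several compound concentrations with 0.2% DMSO as baseline; phase-contrast morphology annotated apparent cytotoxicity.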
# [16] = read-out: sulfotransferase (SULT2A), SULT2A1 (gene 6822); experiment: CLD_SULT2A_6hr: CellzDirect (CLD) Gene Expression Assay for sulfotransferase (SULT2A) at 6 hours (AID 2283669);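 also: hits raise transcript level above the DMSO vehicle baseline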
# Method in brief: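 Measured 6 h after dosing, SULT2A1 mRNA in human hepatocyte lysates was quantified by S1 nuclease protection with chemiluminescent detection. Increases fitted against 0.2% DMSO vehicle baseline; phase-contrast cytotoxicity recorded yes/no.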
compound,measurement,setting,value
O=C1CCC(N2C(=O)c3ccccc3C2=O)C(=O)N1 (stereo unspecified),AC50,[1],inconclusive: 202 µM
same,AC50,[2],inconclusive: 21 µM
same,AC50,[3],inconclusive: 40.2 µM
same,outcome,[4],inactive
same,AC50,[5],inconclusive: 30.5 µM
CC1=C(/C=C/C(C)=C/C=C/C(C)=C/C(=O)O)C(C)(C)CCC1,AC50,[1],active: 0.193 µM
same,AC50,[2],active: 0.237 µM
same,AC50,[3],active: 0.323 µM
same,AC50,[6],active: 0.248 µM
same,AC50,[7],active: 0.186 µM
same,AC50,[8],active: 0.252 µM
same,AC50,[9],active: 0.168 µM
same,AC50,[4],active: 0.272 µM
CC(C)(C)c1cc(O)c(C(C)(C)C)cc1O,AC50,[1],active: 34.3 µM
same,outcome,[2],inactive
same,AC50,[6],inconclusive: 10.2 µM
same,AC50,[4],inconclusive: 51.1 µM
same,AC50,[5],active: 34.6 µM
OCCC(F)(F)C(F)(F)C(F)(F)C(F)(F)C(F)(F)C(F)(F)C(F)(F)C(F)(F)F,AC50,[1],inconclusive: 2.06 µM
CO[C@@H]1COCC[C@@H]1N[C@@H]1CC[C@@](C(=O)N2CCc3ncc(C(F)(F)F)cc3C2)(C(C)C)C1,outcome,[1],inactive
same,outcome,[7],inactive
CCc1cccc(CC)c1N,AC50,[1],inconclusive: 25.5 µM
same,outcome,[3],inactive
same,AC50,[6],inconclusive: 29.5 µM
same,AC50,[9],inconclusive: 3.16 µM
C#CC(O)C(CC)CCCC (stereo unspecified),outcome,[1],inactive
same,AC50,[3],inconclusive: 95.5 µM
same,outcome,[4],inactive
O=S1(=O)CCCO1,outcome,[1],inactive
same,AC50,[4],inconclusive: 0.00245 µM
same,AC50,[10],inconclusive: 53.3 µM
C=CCOC(Cn1ccnc1)c1ccc(Cl)cc1Cl (stereo unspecified),AC50,[2],inconclusive: 20.2 µM
same,AC50,[3],inconclusive: 7.97 µM
same,AC50,[8],inconclusive: 1.96 µM
same,AC50,[11],inconclusive: 2.95 µM
same,AC50,[12],inconclusive: 19.7 µM
same,AC50,[13],active: 0.0861 µM
same,AC50,[14],inconclusive: 20 µM
same,outcome,[15],inactive
same,outcome,[16],inactive
OC[C@H]1O[C@@H]2O[C@H]3[C@H](O)[C@@H](O)[C@@H](O[C@H]4[C@H](O)[C@@H](O)[C@@H](O[C@H]5[C@H](O)[C@@H](O)[C@@H](O[C@H]6[C@H](O)[C@@H](O)[C@@H](O[C@H]7[C@H](O)[C@@H](O)[C@@H](O[C@H]1[C@H](O)[C@H]2O)O[C@@H]7CO)O[C@@H]6CO)O[C@@H]5CO)O[C@@H]4CO)O[C@@H]3CO,outcome,[1],inactive
same,AC50,[4],inconclusive: 106 µM
CCOc1cccc(-n2cc(C(=O)N3CCN(c4cc(C(=O)O)c5ccccc5c4)CC3)nc2-c2ccc(C)cc2)c1,outcome,[1],inactive
same,AC50,[11],inconclusive: 43 µM
CCCCOC(=O)c1ccccc1,AC50,[2],inconclusive: 6.77 µM
same,outcome,[3],inactive
same,AC50,[6],inconclusive: 202 µM
same,outcome,[8],inactive
same,AC50,[11],inconclusive: 32.2 µM
same,outcome,[4],inactive
O=C(N[C@@H](Cc1ccccc1)[C@@H](O)C(=O)N1C[C@@H](O)[C@@H](O)C1)c1cc2cc(Cl)ccc2[nH]1,outcome,[1],inactive

# A second format for part of the listing above.
compound | measurement | setting | value
CO[C@@H]1COCC[C@@H]1N[C@@H]1CC[C@@](C(=O)N2CCc3ncc(C(F)(F)F)cc3C2)(C(C)C)C1 | outcome | [7] | inactive
C#CC(O)C(CC)CCCC (stereo unspecified) | AC50 | [3] | inconclusive: 95.5 µM
